Molecules are shown by their SMILES. This is one part of the list. Further columns of the screen follow, without active or inactive calls. Most of these compounds were active or inconclusive in the main read-out, so they are no random draw. Words in brackets tell the shape of the fitted curve; partial curves, single points and poor fits give uncertain potencies.

This note sets out measurements from PubChem BioAssay AID2685 (National Center for Advancing Translational Sciences (NCATS), 2010).

The nature of this assay: qHTS Assay for Lipid Storage Modulators in Drosophila S3 Cells.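 On cell number change: cells counted by Cell Tracker Red CMTPX staining in the red channel.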 Conditions: BODIPY lipid droplet fluorescence, 18-24 h; for cell number change: measured here: cell count max response, cells fed with added oleic acid. The essentials:
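Drosophila S3 cells got compounds at several concentrations plus oleic acid (400 uM solution). Laser-scanning cytometry with 488 nm excitation read lipid droplets at 500-530 nm and cells at 575-640 nm. Percent activity was relative to 20 uM Triacsin C.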
For orientation: qHTS replaces the single test concentration by a dilution series.

[1] abbreviates: measured here: lipid fluorescence (Fed channel) AC50, cells fed with added oleic acid.
Setting [2] is: measured here: cell number channel AC50, cells fed with added oleic acid.

In general, AC50 refers to the concentration giving half of the maximal activity seen. Low readings indicate greater potency, high ones weaker potency. As for `Cc1cccc(OCc2nnc(SCC(=O)OC3CCCCC3)o2)c1`, the cell number change is -1.29%. Further, under setting [1], the AC50 is 0.116 µM [falling, full curve, poor fit].
Consider `CC(C)[C@H](NC(=O)[C@@H]1Cc2ccccc2CN1C(=O)OC(C)(C)C)C(=O)NCC1CCCO1` (stereo not given in full), for which the cell number change was -0.763%. Also, the AC50 under setting [1] is 29.1 µM [rising, single point].
For `C=CCNc1nc(C(=O)OCC(=O)N(Cc2ccccc2)C(C)C)cs1`, the cell number change was 10.1%. For the same compound, the AC50 under setting [2] is 0.82 µM [falling, single point]. Moreover, the AC50 under setting [1] is 0.92 µM [falling, full curve, poor fit].
For `Cc1ccc(C)c(OCC(=O)O/N=C(\N)c2ccccn2)c1`, the cell number change is -16.6%. Under setting [1], the AC50 was 2.31 µM [falling, partial curve, poor fit].
In the case of `Cc1sc(NC(=O)CN(C(=O)c2ccccc2F)C2CCCC2)c(C(N)=O)c1C`, the cell number change was -0.901%. Besides, the AC50 under setting [1] is 29.1 µM [falling, single point].
With `CCCN(CCC)CCNC(=O)C1CCN(S(=O)(=O)c2cccc3nsnc23)CC1`, the cell number change was determined as 1.19%.
Same read-out and setting: the figure for `CCOC(=O)NC1=NCC(C)S1` (stereo not given) is 4.09%.
As to `Cc1cc2nn(-c3cccc4ccccc34)nc2cc1N`, the AC50 under setting [1] was 0.651 µM [rising, single point].
For `O=C(CN(C(=O)CNC(=O)c1ccco1)c1ccc(F)cc1)NC1CCCC1`, the cell number change is -11.8%.
Regarding `O=C(O)/C=C/c1ccc(S(=O)(=O)N(CCO)CCO)cc1`, the cell number change is -18.9%. Further, under setting [1], the half-maximal activity concentration (AC50) is 0.92 µM [falling, full curve].
Turning to `Cc1ccc(OCC(=O)NCCNC(=O)c2ccco2)cc1`, the cell number change stood at 18.1%. Besides, the concentration at half-maximal activity (AC50) under setting [1] is 0.206 µM [rising, single point].
Consider `Cc1ccc(C)c(S(=O)(=O)N2CCCCC2CCNC(=O)C(=O)NCCc2ccco2)c1` (stereo not given), for which the cell number change is -58.2%. Moreover, the AC50 under setting [2] was 20.6 µM [falling, partial curve]. For the same compound, the AC50 under setting [1] was 5.8 µM [falling, full curve, poor fit].
As for `C/C(=N\NC(=O)c1cc(C)nc2ccccc12)c1ccccn1`, the cell number change stood at 11.6%.
Regarding `COc1ccc(NC(=O)Nc2ccccc2SC)cc1`, the cell number change is -19%. Moreover, the concentration at half-maximal activity (AC50) under setting [1] is 0.58 µM [falling, single point].
As for `Cc1c(Cl)cccc1NC(=O)Nc1cc(C(C)(C)C)on1`, the cell number change was -53.4%. Also, the AC50 under setting [2] was 13 µM [falling, partial curve]. Under setting [1], the AC50 is 14.6 µM [falling, partial curve].
`Cc1cc(C(=O)Cn2cncn2)c(C)n1CCc1ccc(F)cc1`: the AC50 under setting [2] is 2.91 µM [rising, single point].
For the compound `CCCCCCN=CC1=C(O)C(C(=O)OC)C(C)(C)CC1=O` (stereo not given), the cell number change is -0.576%. Further, the AC50 under setting [1] was 1.16 µM [rising, full curve].
For the compound `COc1cc(NC(=S)NC(=O)c2ccccc2F)ccc1NC(=O)c1cccs1`, the cell number change was found to be 64.2%. Under setting [2], the AC50 was 6.51 µM [rising, partial curve, poor fit].
`CCc1ccc(C(C)NC(=O)c2ccncc2)cc1` (stereo not given): the cell number change is -10.4%. Moreover, the AC50 under setting [1] was 6.51 µM [falling, single point].
`Cc1noc(NS(=O)(=O)c2ccc(N/C=C\C(=O)c3cccc4ccccc34)cc2)c1C`: the cell number change was -17.7%.
As to `NCCc1nnc(SCc2ccccc2)o1`, the cell number change is -14.9%.
Consider `O=C(NCCS(=O)(=O)NCc1ccc(F)cc1)c1ccc2c(c1)OCO2`, for which the cell number change is -7.58%.
`Cc1ccc(C(=O)NCC(=O)OCc2nnc(-c3ccccc3)o2)cc1`: the cell number change came out at 13.9%. In addition, the AC50 under setting [1] was 29.1 µM [rising, single point].
Regarding `Cc1cc(=O)oc2cc(OCc3cc4c(cc3Cl)OCO4)ccc12`, the AC50 runs as follows: under setting [2], 2.31 µM [falling, partial curve]; under setting [1], 2.31 µM [falling, partial curve].
In the case of `COc1ccc(/C(N)=N/OC(=O)CCC2CCCC2)cc1OC`, under setting [1], the AC50 was 7.31 µM [rising, partial curve].
As for `COc1ccc(N(CC(=O)N2CCN(c3ccc(Cl)cc3)CC2)S(=O)(=O)c2c(C)noc2C)cc1`, the cell number change was 4.96%. Moreover, the AC50 under setting [1] was 29.1 µM [rising, single point].
For `O=C(CN1C(=O)c2ccccc2C1=O)NCC(=O)OCC(=O)c1cccc([N+](=O)[O-])c1`, the cell number change is -20.4%. Further, the AC50 under setting [1] was 29.1 µM [falling, single point].
In the case of `Cc1ccc(C(=O)N2CCN(c3ccccn3)CC2)cc1Cl`, the cell number change was -17%. Also, the AC50 under setting [1] was 0.58 µM [falling, partial curve, poor fit].
For `COc1ccc(Br)cc1/C=N/NC(=O)CN1CCCCC1`, the cell number change worked out at 7.45%. For the same compound, the AC50 under setting [1] is 0.116 µM [rising, full curve].
`O=C(O)/C=C/C(=O)N1CCN(c2ccccc2F)CC1`: the cell number change is -19.9%. Also, the concentration at half-maximal activity (AC50) under setting [1] was 0.651 µM [falling, full curve, poor fit].
Consider `COc1nc(N)nc(N2CCOCC2)n1`, for which the cell number change was -20.2%. Besides, the AC50 under setting [1] was 7.31 µM [falling, partial curve, poor fit].
Regarding `COc1ccc(OC)c(C(C)NC(=O)c2ccco2)c1` (stereo not given), the cell number change was -3.45%.
Take `O=C(O)c1cc2cccc(S(=O)(=O)N3CCCCC3)c2cc1O`: the cell number change was -35.7%. Also, the AC50 under setting [2] was 0.146 µM [falling, full curve].
Consider `CC1=C(C(=O)OC(C)C)C(c2ccc3c(c2)OCO3)NC(=O)N1` (stereo not given), for which the cell number change was -25.5%. Also, the AC50 under setting [1] is 29.1 µM [falling, single point].
For the compound `Cc1cc(=O)[nH]c(SCC(=O)Nc2ccc(S(N)(=O)=O)cc2)n1`, the cell number change is -0.638%. The AC50 under setting [1] was 6.51 µM [falling, partial curve].
On to `CCN1CCN(C(=O)CCc2nnc(CCc3ccc(OC)cc3)o2)[C@@H](C)C1=O`, for which the cell number change was -1.16%. Under setting [1], the AC50 is 18.4 µM [rising, single point].
On to `Cc1ccc(C(=O)NC2CCC(C)CC2)s1` (stereo not given), for which, under setting [2], the AC50 was 0.146 µM [falling, full curve, poor fit].
For `CC(C)(Oc1ccc(Cl)cc1)C(=O)NCCCn1ccnc1`, the cell number change came out at 9.56%. In addition, under setting [2], the AC50 is 0.092 µM [falling, full curve, poor fit]. The concentration at half-maximal activity (AC50) under setting [1] was 1.84 µM [rising, single point].
In the case of `FC(F)(F)c1ccc2c(c1)nc1n2CCCC1`, the cell number change is 131%. The AC50 under setting [2] was 25.9 µM [rising, partial curve].
`CCOC(=O)c1c(C)oc2ccc(NS(=O)(=O)c3ccc(C(=O)O)cc3)cc12`: the cell number change worked out at 4.72%. Further, under setting [1], the AC50 was 0.0259 µM [falling, full curve, poor fit].
For the compound `COc1ccc(NC(=O)NCCCCc2ccccc2)c(OC)c1`, the cell number change was -52.5%. Moreover, the AC50 under setting [2] is 14.1 µM [falling, single point]. Further, the AC50 under setting [1] was 17.8 µM [falling, single point].
For `CCn1nc(NC(=O)Cc2ccc(OC)cc2)c2cc3cccc(C)c3nc21`, the cell number change was -43%. Further, the AC50 under setting [2] is 25.9 µM [falling, single point]. Moreover, the half-maximal activity concentration (AC50) under setting [1] is 29.1 µM [falling, single point].
For the compound `O=C(CCNS(=O)(=O)c1cccc2nsnc12)NCc1cccs1`, the cell number change was 46%. In addition, the AC50 under setting [2] was 10.3 µM [rising, partial curve].
Turning to `CC(=O)c1ccc(N=Nc2ccc(N(C)C)cc2)cc1`, the cell number change was determined as 11.1%.
As to `Cc1c(C(=O)NCCc2ccc3c(c2)OCCO3)oc2ccccc12`, the AC50 is 4.11 µM [rising, single point] under setting [2] and 4.61 µM [rising, single point] under setting [1].
`CN(Cc1cccs1)C(=O)CCCc1c[nH]c2ccccc12`: the cell number change is 105%. Moreover, the AC50 under setting [2] is 20.6 µM [rising, single point].
Consider `CC(=O)Nc1cccc(NC(=O)c2ccc([N+](=O)[O-])cc2Cl)c1`, for which the cell number change was determined as 40.2%. In addition, the AC50 under setting [2] is 29.1 µM [rising, single point]. The AC50 under setting [1] was 29.1 µM [rising, single point].
For the compound `COCCN(CCOC)S(=O)(=O)c1ccc(C(=O)Nc2nnc(C)o2)cc1`, the cell number change was -48.3%. The AC50 under setting [2] is 20.6 µM [falling, single point]. Besides, the concentration at half-maximal activity (AC50) under setting [1] was 3.66 µM [rising, full curve].
On to `CC(C)CCNC(=O)NC(=O)COc1c(F)c(F)cc(F)c1F`, for which the cell number change was 0.58%.
Take `Fc1ccc(NC(=S)NCc2cccs2)cc1`: the cell number change is -33.3%. Moreover, the half-maximal activity concentration (AC50) under setting [2] was 4.61 µM [falling, single point]. Further, under setting [1], the AC50 is 16.4 µM [rising, partial curve, poor fit].
On to `O=C(CN1C(=O)S/C(=C\c2cccc(Cl)c2)C1=O)NCCCn1ccnc1`, for which the cell number change was -119%. The AC50 under setting [2] is 29.1 µM [falling, single point]. The AC50 under setting [1] is 0.116 µM [falling, full curve, poor fit].
With `COc1ccc(OCCSc2ccc(S(=O)(=O)N3CCCC3)cn2)cc1`, the cell number change is -6.69%.
Same read-out and setting: in the case of `COc1ccccc1OC(C)C(=O)Nc1ccccc1C(=O)NCc1cccnc1` (stereo not given) it was 2.63%.
Consider `O=C(NCc1ccc(F)cc1)C(=O)NCC1OCCN1C(=O)c1ccc(Cl)cc1` (stereo not given), for which the cell number change stood at 8.76%. Also, the AC50 under setting [1] was 0.0651 µM [rising, full curve, poor fit].
With `C=CCn1c(O)c(N=NC(=O)CNC(=O)/C=C/c2ccco2)c2ccccc21`, the cell number change is 79.6%. The AC50 under setting [2] was 25.9 µM [rising, single point]. Under setting [1], the AC50 is 29.1 µM [rising, single point].
For the compound `COc1cccc(C(=O)NCCS(=O)(=O)NCc2cccnc2)c1`, under setting [1], the AC50 was 0.146 µM [falling, full curve, poor fit].
In the case of `COC1CCN(C(=O)C2CCC(=O)N(C3CCCCCC3)C2)CC1` (stereo not given), the cell number change turned out to be 0.85%.
On the same count and under the same terms, in the case of `O=C(CSc1nc(C(F)(F)F)cc(=O)[nH]1)Nc1nccs1` it was -5.39%.
For the compound `COc1ccc(OCC(=O)Nc2cc3c(cc2C(=O)O)OCCCO3)cc1`, the cell number change stood at 35.7%. In addition, the half-maximal activity concentration (AC50) under setting [2] was 29.1 µM [rising, single point].
Consider `CC(c1ccccc1)C(CC(=O)O)C(=O)Nc1ccc(Cl)c(Cl)c1` (stereo not given), for which the cell number change was -2.55%.
Consider `O=C(Nc1cccc(-c2nc3cccnc3s2)c1)c1ccc(Cl)nc1`, for which the cell number change came to 8.57%. In addition, the concentration at half-maximal activity (AC50) under setting [1] is 0.731 µM [rising, full curve].
For the compound `COc1cc(C(=O)OCCCN=C2NS(=O)(=O)c3ccccc32)cc(OC)c1OC`, the cell number change was -9.64%. For the same compound, under setting [1], the AC50 is 0.146 µM [rising, full curve, poor fit].
Regarding `Cc1cc(C)c2nc(-c3ccco3)cc(C(=O)O)c2c1`, the cell number change was found to be 17.5%. Besides, the concentration at half-maximal activity (AC50) under setting [1] is 18.4 µM [rising, single point].
On to `CCOc1cc(/C=N\NC(=O)Cc2ccccc2)ccc1OCC(=O)Nc1ccc(C)c(C)c1`, for which the cell number change was -26%. The AC50 under setting [2] was 0.58 µM [rising, full curve]. Also, the AC50 under setting [1] was 1.3 µM [rising, full curve].
